Test results taken from PMC5572699.
These are yes or no findings as the source states them, for the method shown. Binding seen in cells or lysates may run through a third protein. Some entries that bind do so weakly or less than the wild type.

Molecular target: amotL2 (angiomotin like 2), endogenous in MDCK cells (dog (endogenous in MDCK))
Experiment: co-IP; endogenous proteins of MDCK cells; lysate (150 mM NaCl, 50 mM Tris-HCl pH 7.6, 10% glycerol, 1.5 mM MgCl2, 1 mM EDTA, 1% Triton X-100) incubated with antibody against AmotL2 for 2 h at 4 °C, Protein G Sepharose; rabbit IgG as negative control; western blot

binding: binds
B1: β-catenin, endogenous in MDCK cells (protein, UniProt B6V8E6 1-781)
chain: MATQADLMELDMAMEPDRKAAVSHWQQQSYLDSGIHSGATTTAPSLSGKGNPEEEDVDTTQVLYEWEQGFSQSFTQEQVADIDGQYAMTRAQRVRAAMFPETLDEGMQIPSTQFDAAHPTNVQRLAEPSQMLKHAVVNLINYQDDAELATRAIPELTKLLNDEDQVVVNKAAVMVHQLSKKEASRHAIMRSPQMVSAIVRTMQNTNDVETARCTAGTLHNLSHHREGLLAIFKSGGIPALVKMLGSPVDSVLFYAITTLHNLLLHQEGAKMAVRLAGGLQKMVALLNKTNVKFLAITTDCLQILAYGNQESKLIILASGGPQALVNIMRTYTYEKLLWTTSRVLKVLSVCSSNKPAIVEAGGMQALGLHLTDPSQRLVQNCLWTLRNLSDAATKQEGMEGLLGTLVQLLGSDDINVVTCAAGILSNLTCNNYKNKMMVCQVGGIEALVRTVLRAGDREDITEPAICALRHLTSRHQEAEMAQNAVRLHYGLPVVVKLLHPPSHWPLIKATVGLIRNLALCPANHAPLREQGAIPRLVQLLVRAHQDTQRRTSMGGTQQQFVEGVRMEEIVEGCTGALHILARDVHNRIVIRGLNTIPLFVQLLYSPIENIQRVAAGVLCELAQDKEAAEAIEAEGATAPLTELLHSRNEGVATYAAAVLFRMSEDKPQDYKKRLSVELTSSLFRTEPMAWNETADLGLDIGAQGEPLGYRQDDPSYRSFHSGGYGQDALGMDPMMEHEMGGHHPGADYPVDGLPDLGHAQDLMDGLPPGDSNQLAWFDTDL
